These are yes or no findings as the source states them, for the method shown. Some results given as binding are weak or reduced against the parent protein; the word gives no strength.
Key:
[1] = biological target: QβStrep recombinant Qβ phage displaying the Strep II tag on A1 (RNA coliphage Qβ) (UniProt Q8LTE1); experiment: ELISA, plate coated with phage
[2] = biological target: QβStrep recombinant Qβ phage displaying the Strep II tag on A1 (RNA coliphage Qβ) (UniProt Q8LTE1); experiment: ELISA, plate coated with phage, HRP conjugate titrated
[3] = biological target: QβStrep recombinant Qβ phage displaying the Strep II tag on A1 (RNA coliphage Qβ) (UniProt Q8LTE1); experiment: dot blot of phage dilutions on nitrocellulose, HRP conjugate

Measured: binding

streptavidin conjugated to HRP (from UniProt P22629 37-163)
binds: [1] | [2] | [3]

Source: patent publication US20250368982A1
